In the supplement of paper PMC10398353 one finds normalized bacterial growth data, which are given here for 81 compounds.

Where “and” joins values, the source holds several entries; their conditions need not be identical. Identical values can stand only once. Counter-ions that a name gives are not always drawn. ± gives the standard deviation of the averaged measurements. Some of the results follow. Single values of this set are uncertain.

This experiment relates to Salmonella enterica serovar Typhimurium ST313 D23580. Description: normalized bacterial growth (OD600 20 h minus 0 h, interquartile-mean normalized) (fraction of plate interquartile mean); higher = more bacterial growth (less inhibition). The conditions noted are these: LPM (pH 5.8, low phosphate, low Mg2+), concentration: 10 µM, temperature: 37 °C.
In the case of `NC(=O)c1cn(Cc2c(F)cccc2F)nn1` [Rufinamide], the normalized bacterial growth was found to be 1.1.
Compound `CC[N+](CC)(CC)CCOc1ccc(/C=C/c2ccccc2)cc1` had a normalized bacterial growth of 0.859.
To `Nc1nc2[nH]cnc2c(=S)[nH]1` belongs 0.51; to `C/C1=C2/[N-][C@H]([C@H](CC(N)=O)[C@@]2(C)CCC(=O)NC[C@@H](C)OP(=O)([O-])O[C@H]2[C@@H](O)[C@@H](n3cnc4cc(C)c(C)cc43)O[C@@H]2CO)[C@]2(C)N=C(/C(C)=C3N=C(/C=C4N=C1[C@@H](CCC(N)=O)C\4(C)C)[C@@H](CCC(N)=O)[C@]\3(C)CC(N)=O)[C@@H](CCC(N)=O)[C@]2(C)CC(N)=O.[CH2-][C@H]1O[C@H](n2cnc3c(N)ncnc32)[C@@H](O)[C@H]1O.[Co+3]`, 0.954; to `CC(Oc1ccc(Oc2cnc3ccc(Cl)cc3n2)cc1)C(=O)O` (stereo unspecified), 1.17.
`CN(C)C(=O)C(CCN1CCC(O)(c2ccc(Cl)cc2)CC1)(c1ccccc1)c1ccccc1` [Loperamide hydrochloride] returned a normalized bacterial growth of 0.927.
With `CC(C(=O)O)c1ccc2c(c1)[nH]c1ccc(Cl)cc12` (stereo unspecified) the figure was 1.03; with `CCCCc1cc2ccccc2c(OCCN(C)C)n1` [Dimethisoquin hydrochloride], 0.74.
In the case of `Cc1cccc(C)c1NC(=O)C(C)N` (stereo unspecified) [Tocainide hydrochloride], the normalized bacterial growth was determined as 1.01.
With `O=C(O)C1CCCNC1` (stereo unspecified) [()-Nipecotic acid], the normalized bacterial growth is 1.19.
To `O=C1c2c(O)cccc2C([C@@H]2O[C@H](CO)[C@@H](O)[C@H](O)[C@H]2O)c2cc(CO)cc(O)c21` (stereo partly specified) belongs 1.51; to `Cc1c(-c2ccccc2)oc2c(C(=O)OCCN3CCCCC3)cccc2c1=O` [Flavoxate hydrochloride], 0.811.
Take `CC(=O)Oc1cc(OC(C)=O)c2c(c1)O[C@H](c1ccc(OC(C)=O)c(OC(C)=O)c1)[C@@H](OC(C)=O)C2`: the normalized bacterial growth is 0.932.
With `CC(C)CCC[C@@H](C)[C@H]1CC[C@H]2[C@@H]3CC(=O)[C@H]4C[C@@H](O)CC[C@]4(C)[C@H]3CC[C@]12C` [5alpha-CHOLESTAN-3beta-OL-6-ONE] the figure was 1.15.
With `CCCCCCCCCCCCCCCCCCCCCCO` the figure was 0.643; with `OC[C@H]1NC[C@H](O)[C@@H](O)[C@@H]1O` [1-Deoxynojirimycin hydrochloride], 0.967.
The compound `CC12CCC(CC1=O)C2(C)C` (stereo unspecified) displayed a normalized bacterial growth of 1.24.
To `C[C@@H]1NC(=O)[C@@H](N)CNC(=O)[C@H](C2CCNC(=N)N2)NC(=O)/C(=C/NC(N)=O)NC(=O)[C@H](CNC(=O)CC(N)CCCN)NC1=O.N=C1NCC[C@H]([C@@H]2NC(=O)/C(=C/NC(N)=O)NC(=O)[C@H](CNC(=O)C[C@@H](N)CCCN)NC(=O)[C@H](CO)NC(=O)[C@@H](N)CNC2=O)N1` belongs 1.07 and 0.988.
In turn, `CN[C@@H]1[C@@H](O[C@H]2O[C@H](CO)[C@@H](N)[C@H](O)[C@H]2O)OC2C[C@@H](N)[C@@H](O[C@H]3[C@H](O)[C@@H](O)[C@H](N)C[C@@H]3N)OC2[C@@H]1O` (stereo partly specified) yielded a normalized bacterial growth of 1.22.
Consider `C=C[C@@](C)(O)CCC1C(=C)CCC2[C@@](C)(CO)CCC[C@]12C` (stereo partly specified), for which the normalized bacterial growth worked out at 1.
To `CC1(C)O[C@H]2CC(=O)OC[C@]23[C@H]2CC[C@@]4(C)[C@H](c5ccoc5)OC(=O)[C@H]5O[C@]54[C@]2(C)C(=O)C[C@@H]13` belongs 1 ± 0.058.
With `Cc1onc(-c2ccccc2Cl)c1C(=O)N[C@@H]1C(=O)N2[C@@H]1SC(C)(C)[C@@H]2C(=O)O` the figure was 1.01; with `Cn1c(=O)c2[nH]c(-c3ccccc3)nc2n(C)c1=O` ["1,3-Dimethyl-8-phenylxanthine"], 1.13.
In turn, `CC(=O)O[C@@H]1CC2C(C)(C)CCC(=O)[C@]2(C)C2CC[C@@]3(C)[C@H](c4ccoc4)OC(=O)C4OC43[C@@]21C` (stereo partly specified) returned a normalized bacterial growth of 0.767.
Compound `COC(=O)C1=CO[C@@H](O[C@@H]2O[C@H](CO)[C@@H](O)[C@H](O)[C@H]2O)[C@@H]2C(CO)=CC[C@H]12` returned a normalized bacterial growth of 0.983.
On to `NS(=O)(=O)c1cc2c(cc1Cl)NC(C(Cl)Cl)NS2(=O)=O` (stereo unspecified), for which the normalized bacterial growth worked out at 1.05.
`CN1CCN(C2Cc3ccccc3Sc3ccc(Cl)cc32)CC1` (stereo unspecified) [()-Octoclothepin maleate] yielded a normalized bacterial growth of 0.857.
For `CN[C@@H]1[C@H](O)[C@H](NC)[C@H]2O[C@@]3(O)C(=O)C[C@@H](C)O[C@H]3O[C@@H]2[C@H]1O`, the normalized bacterial growth was 0.795 and 0.912.
`CN[C@H](CC(=O)O)C(=O)O` [N-Methyl-D-aspartic acid]: the normalized bacterial growth came to 0.799.
With `O=C1C[C@@H](c2ccc(O)c(O)c2)Oc2cc(O)cc(O)c21` the figure was 0.567; with `Nc1ccccc1S(N)(=O)=O` [2-Aminobenzenesulfonamide], 1.27; with `CC1=CC(=O)C(C(C)C)=CC1=O`, 1.02.
With `OCc1cccnc1` the figure was 1.27; with `O=Cc1ccccc1O[C@@H]1O[C@H](CO)[C@@H](O)[C@H](O)[C@H]1O`, 1.21.
Turning to `COC(=O)C(Cc1ccccc1)NC(=O)/C(=C1/OC(=O)C(c2ccccc2)=C1O)c1ccccc1` (stereo unspecified), the normalized bacterial growth worked out at 1.13.
To `CCN(c1nc(N)c(C(=O)NC(=N)N)nc1Cl)C(C)C` [5-(N-Ethyl-N-isopropyl)amiloride] belongs 0.594; to `O=C(O)Cc1c[nH]c2ccc(O)cc12` [5-Hydroxyindolacetic acid], 1.67; to `CN(C)CCC=C1c2ccccc2COc2ccccc21`, 0.846.
The compound `CN(C)CCC=C1c2ccccc2COc2ccccc21` [Doxepin hydrochloride] returned a normalized bacterial growth of 0.613.
To `CC(C)[N+](C)(CCOC(=O)C1c2ccccc2Oc2ccccc21)C(C)C` [Propantheline bromide] belongs 0.87; to `CN1CCC[C@@H]1Cc1c[nH]c2ccc(CCS(=O)(=O)c3ccccc3)cc12`, 1; to `C[n+]1c2cc(N)ccc2cc2ccc(N)cc21`, 0.912.
Consider `COc1ccc(-c2coc3cc(OC)ccc3c2=O)cc1`, for which the normalized bacterial growth amounted to 0.589.
Compound `O=C(N[C@H](CO)[C@H](O)c1ccc([N+](=O)[O-])cc1)C(Cl)Cl` registered a normalized bacterial growth of 0.986.
To `O=C(N[C@H](CO)[C@H](O)c1ccc([N+](=O)[O-])cc1)C(Cl)Cl` [Chloramphenicol] belongs 1.23; to `O=C(O)CCNC(=O)c1ccccc1`, 1.26.
As to `CCC[C@@H]1C[C@@H](C(=O)N[C@@H]([C@H]2O[C@H](SC)[C@H](O)[C@@H](O)[C@H]2O)[C@H](C)Cl)N(C)C1`, the normalized bacterial growth stood at 0.561.
To `CCN(CC)CCOC(=O)c1cc(Cl)c(N)cc1OC` ["SDZ-205,557 hydrochloride"] belongs 0.951; to `NC/C=C/C(=O)O` [(E)-4-amino-2-butenoic acid], 1.14; to `CC(=O)N[C@@H](Cc1c[nH]c2ccccc12)C(=O)OCc1cc(C(F)(F)F)cc(C(F)(F)F)c1`, 0.595.
With `Cc1ccc2c(c1)c1c3n2CCNC3CCC1` (stereo unspecified) [Pirlindole mesylate], the normalized bacterial growth turned out to be 0.65.
With `CCN(CC)CCNC(=O)c1cc(Cl)c(N)cc1OC` [Metoclopramide hydrochloride], the normalized bacterial growth was determined as 0.992.
Consider `NCCCNCCCCNCCCN`, for which the normalized bacterial growth was determined as 0.541.
`NCCCNCCCCNCCCN` [Spermine tetrahydrochloride] showed a normalized bacterial growth of 0.811.
Compound `COc1ccc(-c2oc3cc(OC)c(OC)c(OC)c3c(=O)c2OC)cc1` gave a normalized bacterial growth of 0.862.
For the compound `CN(C)C/C=C(/c1ccc(Br)cc1)c1cccnc1` [Zimelidine dihydrochloride], the normalized bacterial growth is 1.14.
With `CN(C)C/C=C(/c1ccc(Br)cc1)c1cccnc1` [Zimelidine dihydrochloride monohydrate] the figure was 1.02; with `CC(C)(CO)C(O)C(=O)NCCCO` (stereo unspecified), 1.07; with `CCOc1ccc2ccccc2c1C(=O)N[C@@H]1C(=O)N2[C@@H]1SC(C)(C)[C@@H]2C(=O)O` [Nafcillin sodium salt monohydrate], 0.632.
With `CCOc1ccc2ccccc2c1C(=O)N[C@@H]1C(=O)N2[C@@H]1SC(C)(C)[C@@H]2C(=O)O` the figure was 1.1.
To `Cn1cnc2c1c(=O)[nH]c(=O)n2C` belongs 1.1; to `N#C/C(=C\c1c[nH]c2ccccc12)C(=O)c1ccc(O)c(O)c1` [Tyrphostin AG 808], 1.2.
`CC(C)c1c(O)c(-c2cc3c(c(C(C)C)c2O)CCC2C(C)(C)CCC[C@]32C)cc2c1CCC1C(C)(C)CCC[C@]21C` (stereo partly specified) came in with a normalized bacterial growth of 1.25.
Compound `C1CCC(C(CC2CCCCN2)C2CCCCC2)CC1` (stereo unspecified) had a normalized bacterial growth of 0.933.
In turn, `CN1CC(=O)N2[C@H](c3ccc4c(c3)OCO4)c3[nH]c4ccccc4c3C[C@@H]2C1=O` returned a normalized bacterial growth of 0.617.
For the compound `CC(C)NCC(O)COc1ccc(CCOCC2CC2)cc1` (stereo unspecified) [Betaxolol hydrochloride], the normalized bacterial growth was found to be 1.02.
To `CC(=O)[C@@]1(O)CC[C@H]2[C@@H]3C[C@H](C)C4=CC(=O)C=C[C@]4(C)[C@@]3(F)[C@@H](O)C[C@@]21C` [Fluorometholone] belongs 0.942; to `CC(=O)[C@@]1(O)CC[C@H]2[C@@H]3C[C@H](C)C4=CC(=O)C=C[C@]4(C)[C@@]3(F)[C@@H](O)C[C@@]21C`, 0.697; to `CCc1nc(N)nc(N)c1-c1ccc(Cl)cc1`, 0.837.
To `COC(=O)CCCOc1ccc(Cl)cc1Cl` belongs 0.961.
`COc1cccc2oc(-c3ccccc3)cc(=O)c12`: the normalized bacterial growth was determined as 0.964.
With `COc1ccc2c(c1)OC/C(=C/c1ccc(OC)c(OC)c1)C2=O` the figure was 0.755; with `O=C(O)C1CC([C@@H]2CCCCN2)CN2CCCCC12` (stereo partly specified), 1.08; with `COc1cc(C(=O)NCc2ccc(OCCN(C)C)cc2)cc(OC)c1OC`, 0.879.
In turn, `Cc1ccc(S(=O)(=O)N[C@@H](Cc2ccccc2)C(=O)CCl)cc1` [N-p-Tosyl-L-phenylalanine chloromethyl ketone] had a normalized bacterial growth of 1.14.
To `NC1CCN(c2cccc(Cl)n2)CC1` belongs 0.98.
As to `NC(=NCCC[C@H](N)C(=O)O)NO` [NG-Hydroxy-L-arginine acetate], the normalized bacterial growth was 1.03.
To `C[C@@H]1CC[C@H]2[C@](C)(CO)[C@@H](O)CC[C@]2(C)[C@@]12CC[C@@](CO)(CCO)O2` belongs 0.964 and 0.927; to `Cn1c(=O)[nH]c2ncn(C)c2c1=O` ["1,7-Dimethylxanthine"], 1.28; to `C1COC(NC(C2CC2)C2CC2)=N1` [Rilmenidine hemifumarate], 0.919.
Regarding `Cc1cc(C(C)(C)C)c(O)c(C(C)(C)C)c1`, the normalized bacterial growth was 0.959.
